Test results reported in patent US20090186832A1 (priority 2008, published 2009).
At least one structure is not confirmed: it was looked up by name or label, or the drawing left a doubt.

Settings: meptazinol from prodrug vs meptazinol HCl oral; 1 mg meptazinol free base/kg; group 1 dogs (G1)

## CCC1(c2cccc(OC(=O)NC(C)C(=O)NC(C)C(=O)O)c2)CCCCN(C)C1.O=C(O)C(F)(F)F (mixture of isomers) [Meptazinol ala-ala dipeptide TFA salt]
  Mean relative bioavailability %: 79%
